Some of the results follow. These are further read-outs of the screen, such as a control signal, another cell line or another target. No call is given for them. Most of these compounds were active or inconclusive in the main read-out, so they are no random draw. Words in brackets tell the shape of the fitted curve; partial curves, single points and poor fits give uncertain potencies.
Test: qHTS Assay for Lipid Storage Modulators in Drosophila S3 Cells;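 for cell number change: cells counted by Cell Tracker Red CMTPX staining in the red channel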
Details: BODIPY lipid droplet fluorescence, 18-24 h; for cell number change: measured here: cell count max response, cells fed with added oleic acid
Summary of the method: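 Drosophila S3 cells got compounds at several concentrations plus oleic acid (400 uM solution). Laser-scanning cytometry with 488 nm excitation read lipid droplets at 500-530 nm and cells at 575-640 nm. Percent activity was relative to 20 uM Triacsin C.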

[1] = measured here: cell number channel AC50, cells fed with added oleic acid
[2] = measured here: lipid fluorescence (Fed channel) AC50, cells fed with added oleic acid

Compound	cell number change	AC50 [1]	AC50 [2]
CCc1ccc(OCC(=O)Nc2cccc3c2CCCC3)cc1	-32.5%	29.1 µM [falling, single point]	0.146 µM [rising, partial curve, poor fit]
O=C1CCCN1C(=O)CSc1nnnn1-c1ccccc1	20.1%		29.1 µM [rising, single point]
CC(Sc1nnc(C2CC2)n1C1CC1)C(=O)NCc1cccs1 (configuration not stated)	-50%	1.16 µM [falling, partial curve]	0.00411 µM [falling, full curve, poor fit]
CC(C)(C)CN1CCNC(=O)C1CC(=O)N1CCN(c2ccccc2)CC1 (configuration not stated)	18.3%		4.11 µM [rising, partial curve, poor fit]
CC(COc1ccc(C(C)C)cc1)NC(=O)c1ccc(Br)o1 (configuration not stated)	-12%		3.26 µM [rising, partial curve, poor fit]
Cc1nc2ccc(C(=O)O)cc2[nH]1	-69.1%	23.1 µM [falling, single point]	
O=C(NCc1ccc(N2CCCC2=O)cc1)c1cnccn1	-62%	5.17 µM [falling, full curve, poor fit]	6.51 µM [falling, partial curve]
COc1cc(C(=O)N/N=C/c2cn(Cc3cccc(F)c3)c3ccccc23)ccc1O	-48.5%	25.9 µM [falling, single point]	
CN1C(=O)/C(=C/c2ccc(C(F)(F)F)cc2)Sc2ccc(C(=O)N3CCN(c4ccccn4)CC3)cc21	64.9%		5.8 µM [falling, single point]
Cc1ccc(C)c(-n2nnnc2SCC(=O)NCCC2=CCCCC2)c1		4.11 µM [falling, partial curve, poor fit]	
O=S(=O)(Cc1cc(Cl)nc(-c2ccncc2)n1)c1ccccc1	-58.1%	4.11 µM [falling, full curve, poor fit]	3.26 µM [falling, full curve]
CC(C)CC(=O)Nc1nnc(SCC(=O)NCC2CCCO2)s1 (configuration not stated)	-10.9%		
Cc1cc(C(=O)CSc2n[nH]c(N)n2)c(C)n1C1CC1	-1.46%		
NC(=O)c1ccsc1NC(=O)CS(=O)(=O)c1ccccc1	-27.5%	1.64 µM [rising, partial curve]	
COc1cc(Cl)ccc1OCc1cc(C(=O)N2CCCCCCC2)no1	-21.5%		5.17 µM [rising, partial curve]
COc1ccc(NC(=O)CSc2ncn[nH]2)c([N+](=O)[O-])c1			1.46 µM [falling, partial curve]
COc1cccc(-n2c(Cn3nc(C(F)(F)F)cc3C)n[nH]c2=S)c1	32.2%	5.8 µM [rising, partial curve]	23.1 µM [rising, single point]
O=[N+]([O-])C1C(c2ccccc2)=NOC1c1ccccc1O (configuration not stated)	-8.55%		32.6 µM [falling, single point]
CCN(CC)S(=O)(=O)c1cccc(C(=O)NC(C(=O)Nc2nnc(C)s2)C(C)C)c1 (configuration not stated)	43.7%	11.6 µM [rising, partial curve, poor fit]	6.51 µM [rising, single point]
C=CCn1c(Cc2cccc3ccccc23)n[nH]c1=S	-11.5%		14.6 µM [rising, partial curve]

An excerpt from above in order of heavy-atom count, smallest number first:
Compound	cell number change	AC50 [1]	AC50 [2]
COc1ccc(NC(=O)CSc2ncn[nH]2)c([N+](=O)[O-])c1			1.46 µM [falling, partial curve]
O=S(=O)(Cc1cc(Cl)nc(-c2ccncc2)n1)c1ccccc1	-58.1%	4.11 µM [falling, full curve, poor fit]	3.26 µM [falling, full curve]
CC(C)(C)CN1CCNC(=O)C1CC(=O)N1CCN(c2ccccc2)CC1 (configuration not stated)	18.3%		4.11 µM [rising, partial curve, poor fit]

The listing continues:

Compound	cell number change	AC50 [1]	AC50 [2]
NS(=O)(=O)c1ccc(CCNC(=O)CSc2ccsc2[N+](=O)[O-])cc1	-1.96%	4.61 µM [rising, single point]	6.51 µM [rising, partial curve]
CN(C)CCN(C(=O)c1ccc2ccccc2c1)c1nc2ccc(Br)cc2s1	30.1%	2.91 µM [rising, partial curve, poor fit]	
Cc1ccc(S(=O)(=O)N/N=C\c2ccc([N+](=O)[O-])o2)cc1	-76%	20.6 µM [falling, partial curve, poor fit]	20.6 µM [falling, partial curve, poor fit]
COc1ccc2cc(Br)ccc2c1CC(=O)NC(C)C	30%	32.6 µM [rising, single point]	3.26 µM [rising, full curve, poor fit]
CCOC(=O)N1CCN(CC(O)COc2ccccc2C(C)CC)CC1 (configuration not stated)			4.11 µM [falling, partial curve]
Cc1cccc(NC(=O)c2cc(NC(=O)c3ccco3)ccc2Cl)n1			0.58 µM [rising, single point]
CC(=O)NC(C)C(=O)OCC(=O)Nc1ccc(Br)cc1 (configuration not stated)	-162%	25.9 µM [falling, partial curve]	
CCC(=O)c1cn(CC(=O)Nc2cccc(C)c2)c2ccccc12	10.9%		29.1 µM [rising, single point]
O=c1[nH]c(=O)n(CCOc2ccc(Cl)cc2)cc1Br	4.31%		0.206 µM [rising, full curve]
COc1cc(Br)c(C(C)NC(=O)c2ccccc2)cc1OC (configuration not stated)	105%	29.1 µM [rising, single point]	29.1 µM [rising, partial curve]
COC(=O)c1cccc(NC(=O)Cn2cnc3c2c(=O)n(C)c(=O)n3C)c1	14.5%		6.51 µM [rising, single point]
CCCc1cc(=O)oc2c(C)c(OC(C)C(=O)NCc3ccccn3)ccc12 (configuration not stated)	1.19%		0.164 µM [falling, full curve, poor fit]
Cc1ccc(OCC(=O)NCc2n[nH]c(=O)c3ccccc23)cc1	3.96%	0.00517 µM [falling, full curve, poor fit]	
CCCn1c(N)c(C(=O)COC(=O)COc2ccc(Cl)c(C)c2)c(=O)n(C)c1=O	24.1%		
CCOc1ccc2oc(C(=O)OCC(=O)NC3CC3)c(C)c2c1	12.9%		
Clc1ccc(Cn2c(CN3CCCC3)nc3ccccc32)cc1	16.4%		0.0206 µM [rising, full curve, poor fit]
O=c1oc2ccccc2c(O)c1C=Nc1cccnc1	4.39%		0.231 µM [rising, full curve, poor fit]
Cc1ccccc1NC(=O)CSC1=C(C#N)C(c2ccsc2)CC(=O)N1 (configuration not stated)	11.3%		2.06 µM [rising, partial curve]
CCN(CC)CCOc1c(C)cccc1Cl	-61.5%	18.4 µM [falling, partial curve]	
O=C(Nc1ccccc1)c1ccc(=O)n(Cc2cccc(Cl)c2)c1	-52.9%	5.8 µM [falling, partial curve]	5.17 µM [falling, partial curve]

Compound	cell number change	AC50 [1]	AC50 [2]
CCOC(=O)c1c(NC(=O)CCN2CCOCC2)sc(C)c1-c1ccccc1	-18%		
Cc1c(C(=O)N2CCCC2)oc2c1-c1[nH]ncc1CC2	6.95%		9.2 µM [rising, single point]
CCN(CC)CCNC(=S)Nc1ccc2nc(N3CCN(C)CC3)cc(C)c2c1	22.7%		3.66 µM [rising, partial curve, poor fit]
CC(C)OC(=O)CSc1nnc(-c2ccccn2)n1C	-1.71%		0.00461 µM [falling, full curve, poor fit]
C/C(=N\NC(=O)c1ccn(C)n1)c1cccc(NC(=O)c2ccc(C)s2)c1	30.5%	5.8 µM [rising, partial curve]	5.17 µM [rising, partial curve]
O=C(C1CCCN(S(=O)(=O)Cc2ccccc2)C1)N1CCC(Cc2ccccc2)CC1 (configuration not stated)	80.9%	18.4 µM [rising, single point]	29.1 µM [rising, single point]
CCC(C(=O)N1CCC(C(N)=O)CC1)n1nc(C)n2c(cc3occc32)c1=O (configuration not stated)	-0.382%		18.4 µM [rising, single point]
CC1CCCN(C(=O)COC(=O)c2ccc(=O)n(Cc3ccccc3)n2)C1 (configuration not stated)	-2.99%		16.4 µM [rising, single point]
N#CC1=C(N)Oc2n[nH]c(-c3cccs3)c2C1c1ccoc1 (configuration not stated)	-1.09%		8.2 µM [rising, partial curve, poor fit]
CC(=O)N1c2ccccc2S(=O)(=O)c2ccccc21	-11%		10.3 µM [falling, partial curve, poor fit]
CCn1ncc([C@@H]2C[C@H]3CN(Cc4ccccc4C)C(=O)[C@]34CCCN24)c1C	3.37%		6.51 µM [falling, single point]
CCc1ccc(S(=O)(=O)/N=C2\C=C(NS(=O)(=O)c3ccccc3)C(=O)c3ccccc32)cc1	5.56%		
O=C(Nc1cccc(NC(=O)c2ccc(F)cc2)c1)c1ccc(F)cc1	112%	25.9 µM [rising, partial curve]	29.1 µM [falling, single point]
Cc1cc(C)cc(NC(=O)C2CCCN(c3nccc(C)n3)C2)c1 (configuration not stated)			0.58 µM [rising, single point]
O=C(Nc1ccc(C(=O)NCCCN2CCN(c3ccccc3)CC2)cc1)C1=CSCCO1	3.4%	0.651 µM [rising, partial curve, poor fit]	
Cc1ccc(N(CC(=O)NC(C)c2ccccc2)S(=O)(=O)c2c(C)n[nH]c2C)cc1 (configuration not stated)	22.1%		
COc1ccc(CCNC(=O)CCCCCN2C(=O)[C@@H]3Cc4ccccc4CN3C2=O)cc1OC			5.17 µM [rising, single point]
CCc1ccc([C@@H]2CC=C(C(=O)O)[C@H](c3ccc(Cl)cc3)N2S(=O)(=O)c2ccc(C)cc2)cc1	-30.4%	29.1 µM [falling, single point]	
